Experimental data published in patent US20260176628A1, “TARGETED EPIGENETIC EDITING AS NOVEL THERAPY FOR MALIGNANT GLIOMA” (The Regents of the University of California, priority 2022, published 2026).
Some results were stated once for a whole list of compounds, not compound by compound.

Tested on: LN18 human glioma cells
Assay: Fluorescent microscopy of GFP, lentiviral transfection efficiency
Assay type: cell-based

## 5′-GTATTACTGATATTGGTGGG-3′ (chemistry not given here) [NSC]
  cells exhibiting GFP positivity: over 90%
